# In all, about 580,000 compounds went through this assay and about 6,100 (1.1%) were called active. The shares of active, inactive and inconclusive entries below differ from those in the screen. The call rests on the fitted dose curve; in most records, active means well fitted inhibition curve with a large enough effect; inconclusive means small, poorly fitted or top-dose-only effect, or another doubt; inactive means no such curve, though single readings can be large or run the other way. Where the call is inconclusive, the potency comes from a doubtful curve fit.
# Sequences of proteins named here, by UniProt entry; tags and fusion partners are left off. A change or cut given only in a name is not applied to a line headed by its entry.
# UniProt P18054: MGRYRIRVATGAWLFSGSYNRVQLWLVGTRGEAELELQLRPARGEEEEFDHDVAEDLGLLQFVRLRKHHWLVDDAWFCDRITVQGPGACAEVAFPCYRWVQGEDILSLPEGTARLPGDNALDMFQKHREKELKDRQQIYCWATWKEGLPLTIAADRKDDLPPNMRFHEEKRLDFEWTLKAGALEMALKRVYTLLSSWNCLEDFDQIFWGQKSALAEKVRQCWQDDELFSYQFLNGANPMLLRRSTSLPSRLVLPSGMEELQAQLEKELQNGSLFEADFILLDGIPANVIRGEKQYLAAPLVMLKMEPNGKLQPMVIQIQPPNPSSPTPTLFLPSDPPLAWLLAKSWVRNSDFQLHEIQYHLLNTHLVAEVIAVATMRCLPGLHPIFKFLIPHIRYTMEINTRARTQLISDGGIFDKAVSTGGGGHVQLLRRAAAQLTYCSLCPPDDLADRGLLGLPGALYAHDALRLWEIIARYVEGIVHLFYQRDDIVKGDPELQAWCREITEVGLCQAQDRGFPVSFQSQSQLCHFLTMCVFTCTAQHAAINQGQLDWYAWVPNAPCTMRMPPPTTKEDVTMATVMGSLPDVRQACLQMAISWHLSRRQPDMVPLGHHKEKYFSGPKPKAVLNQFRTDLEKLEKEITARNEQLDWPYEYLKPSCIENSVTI
# Target: Polyunsaturated fatty acid lipoxygenase ALOX12 (Homo sapiens) (UniProt P18054)
# Assay: Primary qHTS assay for inhibitors of human arachidonate 12S-lipoxygenase (ALOX12): Round 2
# Conditions: purified 12hLO, xylenol orange hydroperoxide absorbance; activity change, negative = inhibition: at 108 µM (top of the series) unless noted
# Method in brief: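 Purified human 12hLO at 150 nM in 25 mM Hepes, 0.01% Triton X-100, pH 7.0, preincubated 15 min at room temperature with compound. Reaction started with 40 uM arachidonic acid, 30 min at room temperature. Hydroperoxide measured by Fe-xylenol orange, 573/405 nm absorbance ratio.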
# On the % scale 0 is the no-effect control and ±100 the full control effect; potency means the concentration at half of the fitted maximal effect.
SMILES,Potency,"activity change, negative = inhibition"
CC(=O)N1CCN(C(=O)Cn2ccc3cc(Br)ccc32)CC1,"inconclusive: 39.8 µM [inhibitor, single point]",–
CCOc1ccc(C(c2c(O)cc(C)n(Cc3ccco3)c2=O)N2CCN(C)CC2)cc1 (stereo not drawn),"inconclusive: 44.7 µM [inhibitor, partial curve, poor fit]",–
COc1ccc2nc3ccccc3nc2c1NC(=O)c1ccccc1Cl,–,inactive: -10.2%
CN1CCCc2cc(C=O)ccc21,–,inactive: 7.19%
CC(C)c1ccc(NC2CCCN(C(=O)c3cnn(C(C)C)c3)C2)cc1 (stereo not drawn),"inconclusive: 126 µM [inhibitor, single point]",–
Cc1cc(C)c(C)c(S(=O)(=O)NCc2ccc(C(=O)N3CCCC3)cc2)c1C,"inconclusive: 141 µM [inhibitor, partial curve, poor fit]",–
O=C(Nc1ccc(Br)cc1)c1ccc(N2C(=O)C3CCCCC3C2=O)cc1 (stereo not drawn),"inconclusive: 35.5 µM [inhibitor, partial curve, poor fit]",–
CC(=O)NNC(=S)Nc1cccc(Cl)c1Cl,–,inactive: 25.3%
Cc1ccc(SCC(=O)c2c(C)nc3cc(C)ccn23)cc1,–,inactive: -4.33%
CCCCN(Cc1cc2cc(C)ccc2[nH]c1=O)S(=O)(=O)c1ccc(Cl)cc1,–,inactive: -23.5%
CCCCCOc1ccc(/C=C/C(=O)/C=C/c2ccc(OCCCCC)cc2)cc1,–,inactive: -2.23%
CC(Nc1oc(-c2ccc(COc3ccccc3)o2)nc1C#N)c1ccccc1 (stereo not drawn),"inconclusive: 56.2 µM [inhibitor, partial curve, poor fit]",–
COc1ccc2cnn(CC(=O)Nc3ccccc3Br)c(=O)c2c1OC,–,inactive: -16.2%
CC(=O)Nc1cc2c(cc1Br)OCCO2,"inconclusive: 0.0794 µM [inhibitor, full curve, poor fit]",–
CC(Sc1nc2ccccc2[nH]1)C(=O)NC(=O)NC12CC3CC(CC(C3)C1)C2 (stereo not drawn),"inconclusive: 2 µM [inhibitor, full curve, poor fit]",–
COc1ccc(C(CCNCc2ccc(N(C)C)cc2)c2ccccc2OC)cc1 (stereo not drawn),"inconclusive: 44.7 µM [inhibitor, partial curve, poor fit]",–
Cc1ccc(NC(=O)CCc2ncc(-c3ccc(F)cc3F)o2)c(C)c1,–,inactive: 3.75%
CN1/C(=C/C(=O)C2CC2)C(C)(C)c2ccccc21,"inconclusive: 112 µM [inhibitor, single point]",–
CC(C)CCC(CC(C)O)c1n[nH]c(=S)n1-c1ccccc1 (stereo not drawn),"inconclusive: 70.8 µM [inhibitor, single point]",–
S=C(NCc1cccs1)Nc1ccc(Cl)cc1,"inconclusive: 44.7 µM [inhibitor, partial curve, poor fit]",–
CCC(=O)N1CCc2cc(S(=O)(=O)CCC(=O)Nc3cc(Cl)ccc3OC)ccc21,"inconclusive: 56.2 µM [inhibitor, partial curve, poor fit]",–
O=C(COC(=O)c1cc([N+](=O)[O-])ccc1N1CCOCC1)NCc1ccccc1,"inconclusive: 100 µM [inhibitor, partial curve, poor fit]",–

# 4 records picked at random from those above:
SMILES,Potency,"activity change, negative = inhibition"
CC(C)c1ccc(NC2CCCN(C(=O)c3cnn(C(C)C)c3)C2)cc1 (stereo not drawn),"inconclusive: 126 µM [inhibitor, single point]",–
CCCCCOc1ccc(/C=C/C(=O)/C=C/c2ccc(OCCCCC)cc2)cc1,–,inactive: -2.23%
CC(Sc1nc2ccccc2[nH]1)C(=O)NC(=O)NC12CC3CC(CC(C3)C1)C2 (stereo not drawn),"inconclusive: 2 µM [inhibitor, full curve, poor fit]",–
CC(=O)NNC(=S)Nc1cccc(Cl)c1Cl,–,inactive: 25.3%

# Further entries follow.

SMILES,Potency,"activity change, negative = inhibition"
CN1Cc2cccn2CC1CNC(=O)c1ccco1 (stereo not drawn),–,inactive: 51.2%
COc1ccc(CCNc2ncnc3sc(C)cc23)cc1OC,"inconclusive: 14.1 µM [inhibitor, full curve]",–
Nn1c(Cc2ccc(Br)cc2)n[nH]c1=S,active: 28.2 µM,–
CC(=O)NCC(=O)NCc1nnc2ccc(-c3ccc(C)c(C)c3)nn12,–,inactive: 1.02%
CCN(CC)S(=O)(=O)c1cccc(NC(=O)COC(=O)c2[nH]c(C)c(C(C)=O)c2C)c1,"inconclusive: 112 µM [inhibitor, single point]",–
CCOc1cc(C)c(C(C)C)cc1S(=O)(=O)n1ccnc1C(C)C,–,inactive: 6.13%
Cc1ccc([C@@H]2O[C@H](CO)[C@@H](O)[C@H](O)[C@@H]2O)cc1Cc1ccc(-c2ccc(F)cc2)s1,"inconclusive: 24.3 µM [inhibitor, single point]",–
Cc1ccc(C)c(NC(=O)COC(=O)c2nn(C)c(=O)c3ccccc23)c1,"inconclusive: 50.1 µM [inhibitor, partial curve, poor fit]",–
COc1ccccc1NC(=O)c1ncoc1-c1ccc(C)o1,"inconclusive: 79.4 µM [inhibitor, single point]",–
Cc1cc2cc(CN3C(=O)c4ccccc4C3=O)ccc2n1C,–,inactive: -0.853%
O=C(c1cc(-c2ccc(Cl)cc2)on1)N(Cc1ccco1)Cc1cccs1,"inconclusive: 39.8 µM [inhibitor, partial curve]",–
COc1ccc(C(C)=O)cc1CSc1nc(Nc2ccc(F)c(F)c2)c2ccccc2n1,"inconclusive: 158 µM [inhibitor, partial curve, poor fit]",–
CN(C)S(=O)(=O)c1cccc(C(=O)Nc2cc(S(=O)(=O)N3CCOCC3)ccc2N2CCCC2)c1,"inconclusive: 25.1 µM [inhibitor, partial curve, poor fit]",–
COc1ccccc1Nc1nn2c(=O)c3ccc(C(=O)NCCc4ccccc4)cc3nc2s1,"inconclusive: 79.4 µM [inhibitor, partial curve, poor fit]",–
CC(=O)Nc1nc(=O)c2ccccc2s1,"inconclusive: 28.2 µM [inhibitor, partial curve, poor fit]",–
CCOc1ccccc1NS(=O)(=O)c1c(C(=O)OC)sc2ccccc12,"inconclusive: 39.8 µM [inhibitor, partial curve, poor fit]",–
COc1ccc(CCNc2oc(COc3ccccc3)nc2C#N)cc1,–,inactive: -11%
C/C=C(/C)C(=O)O[C@@H]1c2c(ccc3ccc(=O)oc23)OC(C)(C)[C@@H]1OC(C)=O,"inconclusive: 44.7 µM [inhibitor, partial curve, poor fit]",–
CC(C)N1CCc2c(sc(NC(=O)CCS(=O)(=O)c3ccccc3)c2C#N)C1,"inconclusive: 56.2 µM [inhibitor, partial curve, poor fit]",–
COCCN1C(=O)C(O)=C(C(C)=O)C1c1ccc(OC)c(OC)c1 (stereo not drawn),"inconclusive: 4.47 µM [inhibitor, full curve, poor fit]",–
Nc1ncc(Br)cc1S(=O)(=O)Nc1cc(C(F)(F)F)cc(C(F)(F)F)c1,"inconclusive: 50.1 µM [inhibitor, single point]",–
